Experimental data: PubChem BioAssay AID686937 (Drosophila RNAi Screening Center, 2013)
Aim: 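Genes whose loss weakens secretory pathway function in fly cells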 (primary screen). Cells: Drosophila S2 cells expressing secreted horseradish peroxidase. Reagent: long dsRNA against Drosophila genes. Time to read-out: about 5.5 days (5 days dsRNA, then 12 h reporter induction). Treatment: reporter expression induced after 5 days of dsRNA, read 12 h later; inducer not stated. Measurement: 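Chemiluminescent measurement of peroxidase in the medium 12 h after reporter induction, following 5 days of dsRNA, given as a z-score per plate; higher means more secretion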. Direction: z-score: higher = more reporter secreted into medium.
The screen tested about 23,000 reagents; shown is an unselected part of those with a known target gene and a result. 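Reduced-secretion tags in replicate 1 do not always agree with the z-scores; no criterion for assigning the tags was given.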 A plus sign joins genes that one reagent is predicted to hit. Further read-outs or replicates are left out here. Not given: the amount of reagent.

For pch2 (pachytene checkpoint 2) [DRSC14368], the entry reads z-score, replicate 1 = 0.07.
For CG5612 [DRSC15844], the values are z-score, replicate 1 = 0.65.
After knock-down of BaraC (Baramicin C) [DRSC03885] the results were z-score, replicate 1 = -0.7.
With knock-down of PlexB (Plexin B) [DRSC17177] the results were z-score, replicate 1 = 0.21.
After knock-down of Kaz (Katazuke) [DRSC14637] the results were z-score, replicate 1 = 0.46.
With knock-down of CG1603 [DRSC06602] the results were z-score, replicate 1 = -0.52.
With knock-down of CG3546 [DRSC18308], the screen gave z-score, replicate 1 = 0.44.
CG43312 [DRSC11559] showed z-score, replicate 1 = 0.53.
After knock-down of Crtc (CREB-regulated transcription coactivator) [DRSC10578] the results were z-score, replicate 1 = -2.93.
Silencing of CG33521 [DRSC17179] came out at: z-score, replicate 1 = 0.69.
CG33521 [DRSC17211] gave z-score, replicate 1 = 0.42.
Knock-down of CG33521 [DRSC22919] resulted in: z-score, replicate 1 = -0.73.
Against CG6845 [DRSC08576], the values are z-score, replicate 1 = -0.12.
After knock-down of Mgtor (Megator) [DRSC05958], the record shows z-score, replicate 1 = 0.38.
With knock-down of ssx [DRSC18492], the screen gave z-score, replicate 1 = -1.64.
icln [DRSC07630] gave z-score, replicate 1 = 0.19.
Silencing of CG13558 [DRSC04196] came out at: z-score, replicate 1 = 0.06.
shtd (shattered) [DRSC20166] gave z-score, replicate 1 = -0.17.
TppII (Tripeptidyl-peptidase II) [DRSC07565] scored z-score, replicate 1 = 0.16.
Obsc (Obscurin) [DRSC04301] gave z-score, replicate 1 = 0.79.
With knock-down of Obsc (Obscurin) [DRSC04302], the record shows z-score, replicate 1 = 0.41.
Against Obsc (Obscurin) [DRSC04303], the values are z-score, replicate 1 = 0.11.
With knock-down of Obsc (Obscurin) [DRSC04430] the results were z-score, replicate 1 = 0.1.
Depletion of Obsc (Obscurin) [DRSC22422] resulted in: z-score, replicate 1 = 0.17.
sad (shadow) [DRSC16630] showed z-score, replicate 1 = 0.28.
Depletion of Sec10 (Secretory 10) [DRSC17053] resulted in: z-score, replicate 1 = 0.18.
With knock-down of Rlb1 [DRSC16826], the screen gave z-score, replicate 1 = 0.34.
Tb (Tubby) [DRSC15815] showed z-score, replicate 1 = 0.3.

Taken from above.
Entry of Sec10 (Secretory 10) [DRSC17053] in “z-score, replicate 1”: 0.18
Under “z-score, replicate 1”, Obsc (Obscurin) [DRSC04430] has 0.1
Under “z-score, replicate 1”, pch2 (pachytene checkpoint 2) [DRSC14368] reads 0.07
Entry of CG43312 [DRSC11559] in “z-score, replicate 1”: 0.53
icln [DRSC07630], z-score, replicate 1: 0.19
For “z-score, replicate 1”, Obsc (Obscurin) [DRSC04302] shows 0.41

Additional reagents follow.
After knock-down of aph-1 (anterior pharynx defective 1) [DRSC00547] the results were z-score, replicate 1 = 0.18.
After knock-down of Trpml + CG42638 [DRSC11032], the record shows z-score, replicate 1 = 0.06.
After knock-down of CG8079 [DRSC07070], the record shows z-score, replicate 1 = 0.7.
For CG8079 [DRSC07071] the deposit lists z-score, replicate 1 = 0.25.
Against CG32638 [DRSC18968], the entry reads z-score, replicate 1 = 0.15.
CG8042 [DRSC09676] showed z-score, replicate 1 = 0.32.
galene [DRSC08640] gave z-score, replicate 1 = 0.31.
Knock-down of galene [DRSC08641] came out at: z-score, replicate 1 = 0.51.
stv (starvin) [DRSC09796] scored z-score, replicate 1 = 0.61.
For stv (starvin) [DRSC10111], the values are z-score, replicate 1 = 0.36.
After knock-down of ttm2 (tiny tim 2) [DRSC08268], the screen gave z-score, replicate 1 = 0.34.
For CG34006 (retired record) [DRSC13817] the deposit lists z-score, replicate 1 = 0.35.
After knock-down of Trs33 (TRAPP subunit 33) [DRSC15990], the screen gave z-score, replicate 1 = -0.02.
Depletion of CG42755 (retired record) [DRSC09105] resulted in: z-score, replicate 1 = 0.85.
CG42755 (retired record) [DRSC09106] showed z-score, replicate 1 = 0.47.
With knock-down of CG5554 [DRSC04513], the record shows z-score, replicate 1 = 0.24.
CG34039 [DRSC09318] showed z-score, replicate 1 = 0.58.
After knock-down of Ser12 (Serine protease 12) [DRSC00786], the record shows z-score, replicate 1 = 0.19.
Against ppk13 (pickpocket 13) [DRSC02382] the deposit lists z-score, replicate 1 = 0.36.
Against CG43795 [DRSC04192], the entry reads z-score, replicate 1 = 0.35.
For CG43795 [DRSC04193] the deposit lists z-score, replicate 1 = -0.39.
With knock-down of CG43795 [DRSC04194], the screen gave z-score, replicate 1 = 0.03.
For CG43795 [DRSC04309], the values are z-score, replicate 1 = 0.33.
Silencing of CG43795 [DRSC04310] came out at: z-score, replicate 1 = 0.21.
CG43795 [DRSC04497] showed z-score, replicate 1 = 0.26.
CG43795 [DRSC22826] showed z-score, replicate 1 = 0.12.
